According to patent US20230117592A1 (SRI International, priority 2019, published 2023):
Where “and” joins values, the source holds several entries; their conditions need not be identical. Identical values can stand only once. Structures were worked out from names or drawings and are uncertain.

Sequences of proteins named here, by UniProt entry; tags and fusion partners are left off. Residues count along the entry.
UniProt P18054, whole entry: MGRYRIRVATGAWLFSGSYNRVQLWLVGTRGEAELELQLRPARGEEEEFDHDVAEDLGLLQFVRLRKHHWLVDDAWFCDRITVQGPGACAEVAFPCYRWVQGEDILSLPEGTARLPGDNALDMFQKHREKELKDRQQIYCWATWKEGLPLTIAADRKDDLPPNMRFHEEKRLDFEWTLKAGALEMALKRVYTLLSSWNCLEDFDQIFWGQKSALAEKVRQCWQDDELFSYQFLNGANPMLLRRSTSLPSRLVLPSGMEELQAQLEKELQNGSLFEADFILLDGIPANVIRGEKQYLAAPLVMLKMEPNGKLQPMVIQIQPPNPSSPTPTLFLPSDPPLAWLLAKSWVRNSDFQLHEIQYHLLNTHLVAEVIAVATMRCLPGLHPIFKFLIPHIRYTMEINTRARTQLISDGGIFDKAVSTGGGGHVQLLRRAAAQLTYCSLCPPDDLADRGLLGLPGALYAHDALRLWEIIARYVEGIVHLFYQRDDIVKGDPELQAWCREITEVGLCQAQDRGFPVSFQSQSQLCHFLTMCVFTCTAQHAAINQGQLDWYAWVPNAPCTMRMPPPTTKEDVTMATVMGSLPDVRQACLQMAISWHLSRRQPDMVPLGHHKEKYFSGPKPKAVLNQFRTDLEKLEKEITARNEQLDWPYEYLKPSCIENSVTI
UniProt P09917, whole entry: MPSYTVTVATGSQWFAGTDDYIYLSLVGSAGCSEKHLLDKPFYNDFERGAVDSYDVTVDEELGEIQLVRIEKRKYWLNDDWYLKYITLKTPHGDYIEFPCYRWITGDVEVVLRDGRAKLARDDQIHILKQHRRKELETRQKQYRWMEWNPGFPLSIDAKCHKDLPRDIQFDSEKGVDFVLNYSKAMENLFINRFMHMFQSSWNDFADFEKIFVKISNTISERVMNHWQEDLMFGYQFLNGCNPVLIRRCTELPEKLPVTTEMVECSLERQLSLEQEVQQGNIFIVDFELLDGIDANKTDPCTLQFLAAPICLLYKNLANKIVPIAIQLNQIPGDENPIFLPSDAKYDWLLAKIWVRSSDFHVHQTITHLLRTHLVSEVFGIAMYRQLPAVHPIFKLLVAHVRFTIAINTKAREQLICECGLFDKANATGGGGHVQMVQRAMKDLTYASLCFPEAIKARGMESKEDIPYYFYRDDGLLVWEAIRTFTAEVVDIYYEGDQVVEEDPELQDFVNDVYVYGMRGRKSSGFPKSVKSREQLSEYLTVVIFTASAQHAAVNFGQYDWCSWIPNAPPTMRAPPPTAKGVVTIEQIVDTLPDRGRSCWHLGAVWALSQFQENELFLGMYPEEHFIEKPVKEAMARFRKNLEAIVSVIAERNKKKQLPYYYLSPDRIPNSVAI
UniProt P16050, 2-662 limits assumed: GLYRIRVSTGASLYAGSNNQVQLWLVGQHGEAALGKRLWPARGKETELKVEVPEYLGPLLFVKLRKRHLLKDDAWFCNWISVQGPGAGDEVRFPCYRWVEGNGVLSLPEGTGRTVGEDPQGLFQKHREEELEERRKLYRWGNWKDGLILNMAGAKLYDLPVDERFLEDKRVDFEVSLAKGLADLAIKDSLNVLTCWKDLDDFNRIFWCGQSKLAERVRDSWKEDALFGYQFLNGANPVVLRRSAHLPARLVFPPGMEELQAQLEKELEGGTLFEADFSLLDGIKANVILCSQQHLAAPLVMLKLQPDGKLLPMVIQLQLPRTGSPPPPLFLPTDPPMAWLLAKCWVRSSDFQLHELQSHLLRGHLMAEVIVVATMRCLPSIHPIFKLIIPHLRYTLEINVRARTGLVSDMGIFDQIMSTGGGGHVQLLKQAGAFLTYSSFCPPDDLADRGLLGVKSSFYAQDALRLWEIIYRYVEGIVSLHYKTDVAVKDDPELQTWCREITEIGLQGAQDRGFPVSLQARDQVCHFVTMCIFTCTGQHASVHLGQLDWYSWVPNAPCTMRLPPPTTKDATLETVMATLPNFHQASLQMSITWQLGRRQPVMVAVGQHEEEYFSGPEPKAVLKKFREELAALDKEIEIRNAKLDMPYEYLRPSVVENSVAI

Assays:
12-LOX = 12-LOX (Homo sapiens, UniProt P18054); assay: 12-LOX fluorescent assay (in vitro lipoxygenase inhibition); type: biochemical; details: read-out: IC50 (μM) values for in vitro lipoxygenase inhibition, 12-LOX; 100 nM recombinant 12-LOX, 20 μM AA, DHR123 fluorescence; several values in a cell = repeat determinations
5-LOX = 5-LOX (Homo sapiens, UniProt P09917); assay: 5-LOX fluorescent assay (in vitro lipoxygenase inhibition); type: biochemical; details: read-out: IC50 (μM) values for in vitro lipoxygenase inhibition, 5-LOX; recombinant 5-LOX cell lysate, 20 μM AA, DHR123 fluorescence; several values in a cell = repeat determinations
15-LOX = 15-LOX (Homo sapiens, UniProt P16050); assay: 15-LOX fluorescent assay (in vitro lipoxygenase inhibition); details: read-out: IC50 (μM) values for in vitro lipoxygenase inhibition, 15-LOX; 50 nM recombinant 15-LOX, 20 μM LA, DHR123 fluorescence; several values in a cell = repeat determinations

SMILES | IC50 (12-LOX) | IC50 (5-LOX) [µM] | IC50 (15-LOX)
FC(F)(F)c1cc(Nc2ccc(Cl)cc2)ccc1NCCN1CCOCC1 | 0.06 µM | 0.08 | 0.09 µM
c1ccc(Nc2ccc(-c3ccccc3)c(NCCn3cncn3)c2)cc1 [SS20308-0095-01, N^2-(2-(1H-1,2,4-triazol-1-yl)ethyl)-N^4-phenylbiphenyl-2,4-diamine] | 0.19 µM | 0.25 | 0.44 µM
CN(C)CCc1cc(Nc2ccccc2)ccc1Nc1ccccc1Cl | 0.12 µM and 0.13 µM |  | 0.09 µM and 0.17 µM
